From the supplement of paper PMC10849652
The other results are listed elsewhere or left out.

Amino acid sequences for entries named in this document (tags omitted). A change or cut given only in a name is not applied to a line headed by its entry.
UniProt Q9UI14, whole entry, looked up: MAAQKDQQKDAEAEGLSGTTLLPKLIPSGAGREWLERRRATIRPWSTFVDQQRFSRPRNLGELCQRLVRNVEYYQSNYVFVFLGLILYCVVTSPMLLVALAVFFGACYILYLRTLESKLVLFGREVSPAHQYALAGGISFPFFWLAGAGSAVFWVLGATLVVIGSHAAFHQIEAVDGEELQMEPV
UniProt Q86YS3: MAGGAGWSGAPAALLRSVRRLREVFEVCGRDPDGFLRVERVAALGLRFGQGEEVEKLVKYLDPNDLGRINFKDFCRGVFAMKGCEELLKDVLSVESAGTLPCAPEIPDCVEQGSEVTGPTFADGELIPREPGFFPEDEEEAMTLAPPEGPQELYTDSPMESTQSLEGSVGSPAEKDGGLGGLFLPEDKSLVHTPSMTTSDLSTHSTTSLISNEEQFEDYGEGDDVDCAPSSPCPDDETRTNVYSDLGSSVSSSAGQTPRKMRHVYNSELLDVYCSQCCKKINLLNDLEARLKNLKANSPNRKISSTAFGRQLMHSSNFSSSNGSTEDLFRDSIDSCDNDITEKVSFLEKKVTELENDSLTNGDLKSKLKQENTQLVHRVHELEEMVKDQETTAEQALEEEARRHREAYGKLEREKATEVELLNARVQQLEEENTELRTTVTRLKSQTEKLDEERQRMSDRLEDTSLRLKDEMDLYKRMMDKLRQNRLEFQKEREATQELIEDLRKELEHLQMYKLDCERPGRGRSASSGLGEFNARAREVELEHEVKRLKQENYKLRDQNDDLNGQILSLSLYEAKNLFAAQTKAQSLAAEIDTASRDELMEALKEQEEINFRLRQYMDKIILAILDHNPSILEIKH
UniProt Q9HD47: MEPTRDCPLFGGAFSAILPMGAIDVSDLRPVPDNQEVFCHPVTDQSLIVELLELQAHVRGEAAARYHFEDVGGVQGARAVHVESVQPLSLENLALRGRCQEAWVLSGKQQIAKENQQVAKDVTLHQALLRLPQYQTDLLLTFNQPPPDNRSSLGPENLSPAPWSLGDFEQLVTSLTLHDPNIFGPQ
UniProt Q9Y620: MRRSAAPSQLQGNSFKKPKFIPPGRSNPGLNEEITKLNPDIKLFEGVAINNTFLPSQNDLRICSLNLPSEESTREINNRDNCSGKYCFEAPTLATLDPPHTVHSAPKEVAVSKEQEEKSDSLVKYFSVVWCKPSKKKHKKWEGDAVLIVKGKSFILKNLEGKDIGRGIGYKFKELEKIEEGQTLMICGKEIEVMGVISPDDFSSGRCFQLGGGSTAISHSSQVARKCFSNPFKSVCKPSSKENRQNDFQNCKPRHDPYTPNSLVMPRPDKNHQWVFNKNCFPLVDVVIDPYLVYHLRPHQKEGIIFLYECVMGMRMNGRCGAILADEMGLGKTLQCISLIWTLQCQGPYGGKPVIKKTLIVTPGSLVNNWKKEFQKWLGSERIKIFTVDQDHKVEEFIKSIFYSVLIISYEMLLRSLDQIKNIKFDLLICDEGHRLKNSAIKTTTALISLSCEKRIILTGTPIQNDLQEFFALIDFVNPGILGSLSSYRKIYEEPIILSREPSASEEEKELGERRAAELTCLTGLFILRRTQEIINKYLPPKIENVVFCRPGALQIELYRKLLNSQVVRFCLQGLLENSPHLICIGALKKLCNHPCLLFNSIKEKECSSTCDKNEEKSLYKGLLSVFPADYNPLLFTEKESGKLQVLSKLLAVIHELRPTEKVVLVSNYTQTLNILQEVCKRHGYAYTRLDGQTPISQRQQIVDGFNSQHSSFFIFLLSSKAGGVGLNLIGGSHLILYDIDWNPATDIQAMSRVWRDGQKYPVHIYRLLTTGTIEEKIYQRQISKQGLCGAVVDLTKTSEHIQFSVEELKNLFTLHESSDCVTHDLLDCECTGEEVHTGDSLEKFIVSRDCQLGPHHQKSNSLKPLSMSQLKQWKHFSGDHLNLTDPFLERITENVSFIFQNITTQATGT
UniProt O75154: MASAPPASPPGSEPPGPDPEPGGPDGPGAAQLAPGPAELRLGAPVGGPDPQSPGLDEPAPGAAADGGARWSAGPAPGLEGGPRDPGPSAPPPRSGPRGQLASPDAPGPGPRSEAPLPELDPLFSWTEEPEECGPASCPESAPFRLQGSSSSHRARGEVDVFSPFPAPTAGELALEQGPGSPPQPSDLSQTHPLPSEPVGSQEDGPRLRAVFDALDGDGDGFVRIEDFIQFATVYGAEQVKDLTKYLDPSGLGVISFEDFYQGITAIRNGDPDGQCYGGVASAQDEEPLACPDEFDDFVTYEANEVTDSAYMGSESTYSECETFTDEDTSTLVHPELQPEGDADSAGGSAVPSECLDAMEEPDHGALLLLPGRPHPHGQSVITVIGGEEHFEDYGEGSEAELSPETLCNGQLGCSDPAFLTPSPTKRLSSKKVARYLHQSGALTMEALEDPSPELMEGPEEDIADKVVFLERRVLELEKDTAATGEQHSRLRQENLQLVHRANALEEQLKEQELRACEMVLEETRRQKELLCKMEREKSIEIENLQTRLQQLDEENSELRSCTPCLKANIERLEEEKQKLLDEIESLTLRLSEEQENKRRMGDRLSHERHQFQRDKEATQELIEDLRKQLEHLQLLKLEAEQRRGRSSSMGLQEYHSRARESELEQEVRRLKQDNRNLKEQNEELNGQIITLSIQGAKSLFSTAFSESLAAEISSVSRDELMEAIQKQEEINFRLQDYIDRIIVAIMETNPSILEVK
UniProt Q9NX57: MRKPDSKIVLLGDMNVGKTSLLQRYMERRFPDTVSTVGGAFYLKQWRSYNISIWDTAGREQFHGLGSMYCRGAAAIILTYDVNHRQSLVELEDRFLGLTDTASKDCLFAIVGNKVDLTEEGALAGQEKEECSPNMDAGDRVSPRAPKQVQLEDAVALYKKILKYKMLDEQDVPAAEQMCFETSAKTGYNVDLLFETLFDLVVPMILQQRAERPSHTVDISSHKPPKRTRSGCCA
UniProt Q92698: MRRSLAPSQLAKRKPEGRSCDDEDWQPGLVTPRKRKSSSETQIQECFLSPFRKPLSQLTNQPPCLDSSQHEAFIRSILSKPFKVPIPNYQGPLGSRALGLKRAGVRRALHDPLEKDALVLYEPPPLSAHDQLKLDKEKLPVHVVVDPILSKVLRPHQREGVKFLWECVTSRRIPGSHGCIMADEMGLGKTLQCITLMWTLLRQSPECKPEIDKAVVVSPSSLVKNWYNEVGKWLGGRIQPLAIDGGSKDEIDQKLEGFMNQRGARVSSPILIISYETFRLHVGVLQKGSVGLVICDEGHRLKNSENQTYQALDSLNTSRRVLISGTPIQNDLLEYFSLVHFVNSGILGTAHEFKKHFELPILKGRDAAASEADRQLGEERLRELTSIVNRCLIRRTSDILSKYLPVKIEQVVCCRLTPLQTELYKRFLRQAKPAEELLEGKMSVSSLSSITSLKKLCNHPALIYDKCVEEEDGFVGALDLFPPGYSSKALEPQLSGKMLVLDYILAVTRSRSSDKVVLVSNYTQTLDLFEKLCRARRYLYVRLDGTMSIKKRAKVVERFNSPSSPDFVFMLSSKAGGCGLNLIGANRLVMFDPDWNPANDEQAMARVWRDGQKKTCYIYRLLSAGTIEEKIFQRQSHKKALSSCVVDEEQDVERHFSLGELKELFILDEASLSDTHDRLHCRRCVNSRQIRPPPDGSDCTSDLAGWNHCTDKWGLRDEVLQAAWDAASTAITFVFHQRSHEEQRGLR
UniProt Q7Z5J4: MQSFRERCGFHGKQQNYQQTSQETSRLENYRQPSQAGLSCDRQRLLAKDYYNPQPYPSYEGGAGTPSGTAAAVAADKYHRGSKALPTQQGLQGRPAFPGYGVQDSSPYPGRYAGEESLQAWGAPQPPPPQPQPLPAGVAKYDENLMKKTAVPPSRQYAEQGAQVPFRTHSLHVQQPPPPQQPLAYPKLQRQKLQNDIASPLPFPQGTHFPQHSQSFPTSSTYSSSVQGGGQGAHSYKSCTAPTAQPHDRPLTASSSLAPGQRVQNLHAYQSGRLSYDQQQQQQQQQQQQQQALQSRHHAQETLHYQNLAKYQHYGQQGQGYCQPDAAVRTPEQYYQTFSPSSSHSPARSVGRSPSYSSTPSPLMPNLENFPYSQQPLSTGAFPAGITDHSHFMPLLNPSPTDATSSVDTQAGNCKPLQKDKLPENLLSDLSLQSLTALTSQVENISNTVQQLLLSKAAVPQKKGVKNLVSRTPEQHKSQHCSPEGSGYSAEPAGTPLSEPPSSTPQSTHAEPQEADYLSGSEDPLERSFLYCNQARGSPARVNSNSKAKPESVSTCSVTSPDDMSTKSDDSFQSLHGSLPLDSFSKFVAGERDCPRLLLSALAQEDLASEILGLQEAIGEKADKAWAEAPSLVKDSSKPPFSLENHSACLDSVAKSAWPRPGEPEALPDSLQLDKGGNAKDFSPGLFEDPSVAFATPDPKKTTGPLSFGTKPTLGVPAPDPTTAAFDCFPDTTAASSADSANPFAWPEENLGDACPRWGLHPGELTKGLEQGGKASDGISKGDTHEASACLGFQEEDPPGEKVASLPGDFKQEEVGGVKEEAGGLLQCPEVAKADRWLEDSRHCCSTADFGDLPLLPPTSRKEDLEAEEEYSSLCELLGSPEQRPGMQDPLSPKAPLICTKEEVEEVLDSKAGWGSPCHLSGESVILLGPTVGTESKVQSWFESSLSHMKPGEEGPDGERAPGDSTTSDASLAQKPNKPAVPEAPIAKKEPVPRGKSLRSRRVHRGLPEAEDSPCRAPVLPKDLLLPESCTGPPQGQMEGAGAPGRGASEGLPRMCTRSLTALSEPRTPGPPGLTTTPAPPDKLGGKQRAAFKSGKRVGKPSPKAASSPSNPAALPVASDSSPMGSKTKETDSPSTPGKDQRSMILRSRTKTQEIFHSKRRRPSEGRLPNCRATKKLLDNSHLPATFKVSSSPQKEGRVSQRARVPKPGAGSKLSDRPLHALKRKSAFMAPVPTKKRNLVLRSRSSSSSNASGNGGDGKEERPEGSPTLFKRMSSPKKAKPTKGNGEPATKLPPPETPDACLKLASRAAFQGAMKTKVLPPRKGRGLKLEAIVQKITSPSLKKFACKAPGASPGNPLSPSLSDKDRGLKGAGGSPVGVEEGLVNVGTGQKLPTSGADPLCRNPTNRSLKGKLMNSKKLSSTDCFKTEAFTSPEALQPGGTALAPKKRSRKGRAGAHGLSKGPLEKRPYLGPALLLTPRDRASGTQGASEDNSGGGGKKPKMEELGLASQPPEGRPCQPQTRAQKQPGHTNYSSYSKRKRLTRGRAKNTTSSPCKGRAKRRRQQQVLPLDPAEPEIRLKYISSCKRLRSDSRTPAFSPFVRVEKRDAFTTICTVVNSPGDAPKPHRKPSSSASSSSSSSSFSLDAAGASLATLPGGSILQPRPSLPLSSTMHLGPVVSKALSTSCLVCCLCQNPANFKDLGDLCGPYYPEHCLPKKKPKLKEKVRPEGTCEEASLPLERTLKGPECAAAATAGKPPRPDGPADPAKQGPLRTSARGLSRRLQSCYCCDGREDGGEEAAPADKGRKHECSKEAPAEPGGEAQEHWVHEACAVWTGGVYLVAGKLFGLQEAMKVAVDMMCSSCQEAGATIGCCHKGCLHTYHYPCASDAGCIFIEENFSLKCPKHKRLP
UniProt Q9NP72: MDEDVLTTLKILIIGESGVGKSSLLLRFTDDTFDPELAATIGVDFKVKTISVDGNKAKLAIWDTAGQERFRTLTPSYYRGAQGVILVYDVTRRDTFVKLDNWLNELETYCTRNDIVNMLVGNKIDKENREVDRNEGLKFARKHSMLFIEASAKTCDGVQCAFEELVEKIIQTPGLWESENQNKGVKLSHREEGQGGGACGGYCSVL
UniProt P52306: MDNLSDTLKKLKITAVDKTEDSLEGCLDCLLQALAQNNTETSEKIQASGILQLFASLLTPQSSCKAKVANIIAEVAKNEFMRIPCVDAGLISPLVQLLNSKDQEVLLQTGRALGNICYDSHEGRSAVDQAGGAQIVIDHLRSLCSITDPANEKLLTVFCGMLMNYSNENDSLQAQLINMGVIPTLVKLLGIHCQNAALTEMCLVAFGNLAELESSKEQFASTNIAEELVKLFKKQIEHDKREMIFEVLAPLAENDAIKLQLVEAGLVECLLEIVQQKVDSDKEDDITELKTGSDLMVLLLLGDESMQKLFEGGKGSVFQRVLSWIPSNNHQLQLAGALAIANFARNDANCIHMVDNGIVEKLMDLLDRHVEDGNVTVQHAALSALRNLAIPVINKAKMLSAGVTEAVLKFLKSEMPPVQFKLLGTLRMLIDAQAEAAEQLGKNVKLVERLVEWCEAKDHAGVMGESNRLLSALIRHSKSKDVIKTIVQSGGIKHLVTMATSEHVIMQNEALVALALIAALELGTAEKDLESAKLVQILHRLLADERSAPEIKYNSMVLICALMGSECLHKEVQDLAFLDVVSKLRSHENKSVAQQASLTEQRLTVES
UniProt Q9BUV8: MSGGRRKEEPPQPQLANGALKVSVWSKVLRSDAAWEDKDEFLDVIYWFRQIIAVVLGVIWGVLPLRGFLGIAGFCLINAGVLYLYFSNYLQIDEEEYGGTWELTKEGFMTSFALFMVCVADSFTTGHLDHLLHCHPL

What was measured:
Assay in all cases: log2 fold change, soluble protein after heating vs DMSO (PISA); higher = thermal stabilisation; K562 lysate, 10 uM; active = over 0.2 and 3.5 SD of the protein, either way, in both replicates (recomputed)
[1] = compound: CN1CC[C@H](c2c(O)cc(O)c3c(=O)cc(-c4ccccc4Cl)oc23)[C@H](O)C1 [alvocidib]
In short: (§1)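 Quantification was by TMTpro 16plex LC-MS/MS with equalised channel sums, applied to the supernatant after 21,000xg for 90 min. Samples were crude K562 extract at 1 mg/mL protein in PBS pH 7.4 with 1 mM MgCl2, treated with 10 μM compound for 30 min, heated for 3 min across 48°C-58°C, pooled and brought to 0.5% NP-40 at 4°C. Values are log-two fold changes in thermal stability relative to solvent controls, from duplicates.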

[2] = compound: CNC(=O)C1=CC=CC=C1NC2=NC(=NC=C2Cl)NC3=C(C=C(C=C3)N4CCOCC4)OC
In short: as §1

[3] = compound: CNC(=O)c1ccc(Nc2ncc(C(F)(F)F)c(NCc3nccnc3N(C)S(C)(=O)=O)n2)cc1 [defactinib]
In short: as §1

[4] = compound: CNc1nc(-c2ccc3c(N)n[nH]c3c2)cc(N2C[C@@H](C(=O)NC3CCCCC3)CC[C@H]2C)n1
In short: as §1

[5] = compound: COC(=O)N[C@@H](C)CNc1nccc(-c2cn(C(C)C)nc2-c2cc(Cl)cc(NS(C)(=O)=O)c2F)n1 [encorafenib]
In short: as §1

[6] = compound: COC(=O)[C@H](CCSC)NC(=O)C1=C(C=C(C=C1)NC[C@H](CS)N)C2=CC=CC=C2
In short: as §1

[7] = compound: CN1CCc2c(c3ccccc3n2Cc2ccc(C(=O)NO)cc2)C1 [Tubastatin A]
In short: as §1

[8] = compound: COc1cc(Nc2ncc3c(n2)-c2ccc(Cl)cc2C(c2c(F)cccc2OC)=NC3)ccc1C(=O)O [alisertib]
In short: as §1

[9] = compound: COc1cc2nc(-c3cc(F)ccc3O)nc(N[C@@H]3CNC[C@H]3C(C)(C)O)c2cc1OC
In short: as §1

[10] = compound: COc1cc2ncnc(Nc3ccc(F)c(Cl)c3)c2cc1OCCCN1CCOCC1 [gefitinib]
In short: as §1

Measured: log2 fold change

RAB30 (UniProt Q15771)
inactive: [1] -0.009 | [2] 0.137 | [3] 0.072 | [4] -0.205 | [5] 0.068 | [6] -0.136

RABAC1 (UniProt Q9UI14)
inactive: [7] 0.053 | [2] -0.01 | [3] 0.06 | [4] 0.014 | [5] 0.108 | [6] 0.05 | [8] -0.007 | [9] -0.005 | [10] -0.086

QSOX1 (UniProt O00391)
inactive: [1] -0.009 | [2] -0.04 | [4] 0.076 | [5] 0.126 | [6] 0.083

RAB11FIP4 isoform 2 (UniProt Q86YS3)
inactive: [7] -0.198

RANGRF (UniProt Q9HD47)
inactive: [7] -0.217 | [2] 0.01 | [4] 0.051 | [9] -0.058

RAP1B (UniProt F5GZG1)
inactive: [1] -0.118 | [2] 0.01 | [3] -0.05 | [4] -0.104 | [5] 0.056 | [6] 0.124 | [8] 0.059 | [9] 0.002 | [10] 0.071

RAD54B (UniProt Q9Y620)
inactive: [7] 0 | [3] 0.291 | [4] -0.088 | [5] -0.211 | [6] 0.046 | [8] -0.169 | [10] 0.048

RAD23A isoform 3 (UniProt P54725)
inactive: [1] 0.189 | [7] 0.078 | [2] 0.136 | [8] 0.16 | [9] -0.115 | [10] 0.076

RAB11FIP3 isoform 3 (UniProt O75154)
inactive: [7] 0.09 | [2] 0.183 | [4] 0.059 | [5] 0.023 | [6] -0.251 | [9] 0.072

RAB20 (UniProt Q9NX57)
inactive: [7] 0.133 | [2] -0.005 | [3] -0.035 | [4] 0.142 | [5] -0.052 | [6] 0.038 | [8] 0.05 | [9] -0.012 | [10] -0.039

RAD54L (UniProt Q92698)
inactive: [1] -0.673 | [7] 0 | [2] 0.013 | [4] -0.132 | [8] -0.022 | [9] -0.041 | [10] 0

RACK1 (UniProt D6RF23)
inactive: [3] -0.214 | [5] -0.084 | [6] 0.045 | [8] 0.164 | [10] 0.167

RAB3D (UniProt O95716)
inactive: [7] 0.053 | [2] -0.002 | [3] 0.096 | [4] 0.097 | [5] 0.109 | [6] -0.064 | [9] 0.02

RAB11FIP4 (UniProt Q86YS3)
inactive: [7] -0.018 | [2] 0.011 | [3] 0.021 | [4] -0.113 | [5] 0.195 | [6] 0.005 | [8] -0.191 | [9] 0.001 | [10] 0.129

RAB11FIP5, A0A1B0GTL5
inactive: [1] -0.278 | [2] 0.212 | [9] 0.146

RAI1 (UniProt Q7Z5J4)
inactive: [5] -0.007 | [6] -0.164

RAB18 (UniProt Q9NP72)
inactive: [1] 0.115 | [2] 0.005 | [3] 0 | [4] 0.026 | [5] 0.016 | [6] -0.011 | [8] 0.12 | [9] -0.019 | [10] 0.06

Two neighbouring entries out of the list so far:
RAB3D (UniProt O95716)
inactive: [7] 0.053 | [2] -0.002 | [3] 0.096 | [4] 0.097 | [5] 0.109 | [6] -0.064 | [9] 0.02

RAB11FIP4 (UniProt Q86YS3)
inactive: [7] -0.018 | [2] 0.011 | [3] 0.021 | [4] -0.113 | [5] 0.195 | [6] 0.005 | [8] -0.191 | [9] 0.001 | [10] 0.129

(continued)

RAB27B (UniProt O00194)
inactive: [1] -0.178 | [2] -0.024 | [3] 0.043 | [4] -0.069 | [5] 0.018 | [6] -0.063 | [8] -0.007 | [9] 0.152 | [10] -0.091

RAP1GDS1 isoform 4 (UniProt P52306)
inactive: [1] -0.074 | [9] 0.054

RALGAPA2 (UniProt Q2PPJ7)
inactive: [1] -0.026 | [9] 0.103

RAD17 (UniProt O75943)
inactive: [1] -0.24 | [7] -0.041 | [3] 0.111 | [4] 0.154 | [5] 0.094 | [6] 0.026 | [8] 0.029 | [10] 0.022

QSER1, A0A3B3IRW6
inactive: [7] -0.122 | [2] 0.014 | [3] 0.019 | [4] -0.035 | [5] 0.059 | [6] 0.183 | [8] 0.025 | [9] -0.004 | [10] -0.021

PYCR1 (UniProt J3QKT4)
inactive: [7] 0.115 | [2] -0.045 | [3] -0.1 | [4] 0.411 | [5] -0.048 | [6] 0.097 | [8] -0.092 | [9] 0.049 | [10] -0.142

RAB5IF isoform 5 (UniProt Q9BUV8)
inactive: [1] 0.249 | [2] 0 | [3] -0.032 | [4] -0.011 | [5] 0.04 | [6] -0.125 | [8] 0.15 | [9] -0.011 | [10] 0.131
